# PubChem BioAssay AID504793, Drosophila RNAi Screening Center, 2011
# Assay: 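Knock-downs allowing continued mitosis even though DNA is damaged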 (primary screen)
# Cell system: Drosophila S2R+ cells
# Reagents: long dsRNA against Drosophila genes, about 0.25 µg dsRNA per well
# Time to read-out: 4 days of dsRNA, then 4 hours of drug before read-out
# Treatment: doxorubicin 0.5 µM for 4 hours to cause double-strand breaks, in cells also given a low, harmless dose of dsRNA against nbs to sensitise the assay
# Detection: 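Per-well count of mitotic cells stained for phospho-histone H3 after doxorubicin exposure, used as mitotic index; counts are raw and not normalised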
# Scale: mitotic cells: higher = more cells in mitosis, weaker G2 arrest
# Rule for the call: 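a call needs confirmation in secondary tests, with other dsRNAs and a check of mitotic timing without damage, not just a high primary count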
# Meaning of the calls: active = confirmed in follow-up tests; inactive = not confirmed
# The screen tested about 23,000 reagents; below is an unselected part of those with a known target gene and a result. Over the whole deposit, 62 (0.27%) are marked active. 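Calls come from follow-up tests whose scores are not deposited, so confirmed genes may have low counts here; counts are not normalised per plate.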 Raw values vary from plate to plate and are shown uncorrected. Reagents against one gene are numbered here. A plus sign joins genes that one reagent is predicted to hit.
Target gene,dsRNA no.,"mitotic cells, replicate 1","mitotic cells, replicate 2",Call
CG13305,1,5,,inactive
CG5355,1,5,,inactive
ApepP (Aminopeptidase P),1,7,,inactive
Crk (Crk oncogene),1,3,,inactive
CG13539,1,10,,inactive
CG13539,2,2,,inactive
SNCF (SoxNeuro Co-Factor),1,7,,inactive
Tmem214 (Transmembrane protein 214),1,6,,inactive
Tmem214 (Transmembrane protein 214),2,6,,inactive
Tmem214 (Transmembrane protein 214),3,9,,inactive
Hex-C (Hexokinase C),1,4,,inactive
Hex-C (Hexokinase C),2,6,,inactive
scaf (scarface),1,6,,inactive
bi (bifid),1,8,,inactive
bi (bifid),2,5,,inactive
Ptp69D (Protein tyrosine phosphatase 69D),1,6,,inactive
CG13561,1,8,,inactive
Orc1 (Origin recognition complex subunit 1),1,12,,inactive
CG3703,1,13,,inactive
CG3703,2,14,,inactive
CG3703,3,11,,inactive
bwa (brain washing),1,9,,inactive
bwa (brain washing),2,4,,inactive
Trm1 (tRNA methyltransferase 1),1,7,,inactive
ssp2 (short spindle 2),1,7,,inactive
ssp2 (short spindle 2),2,7,,inactive
CG15044,1,8,,inactive
CG15044,2,3,,inactive
CG15044,3,2,,inactive
Mcm2 (Minichromosome maintenance 2),1,2,,inactive
Mcm2 (Minichromosome maintenance 2),2,8,,inactive
RIOK2 (RIO kinase 2),1,13,,inactive
CG2736,1,7,,inactive
beat-Va (beaten path Va),1,3,,inactive
Capr (Caprin),1,6,,inactive
Capr (Caprin),2,9,,inactive
Gug (Grunge),1,6,,inactive
CG5199,1,3,,inactive
CG15099,1,7,,inactive
"GatA (Glutamyl-tRNA amidotransferase, subunit A)",1,10,,inactive
Rb97D (Ribonuclear protein at 97D),1,14,,inactive
Rb97D (Ribonuclear protein at 97D),2,2,,inactive
CG5191,1,8,,inactive
CG5191,2,11,,inactive
CG5191,3,7,,inactive
CG5191,4,1,,inactive
pasha (partner of drosha),1,7,,inactive
pasha (partner of drosha),2,6,,inactive
RpL7-like + CG34164,1,7,14,inactive
RpL7-like + CG34164,2,3,,inactive
CG10907,1,5,,inactive
side (sidestep),1,11,12,inactive
side (sidestep),2,14,,inactive
side (sidestep),3,14,,inactive
side (sidestep),4,9,,inactive
side (sidestep),5,7,,inactive
vnd (ventral nervous system defective),1,9,,inactive
vnd (ventral nervous system defective),2,7,,inactive
vnd (ventral nervous system defective),3,5,,inactive
CG13022,1,1,,inactive
PolI (DNA polymerase iota),1,6,,inactive
CG15539,1,12,,inactive
Sirt6 (Sirtuin 6),1,2,,inactive
Sirt6 (Sirtuin 6),2,10,,inactive
CG14569,1,7,,inactive
CG11638,1,18,,inactive
CG11638,2,14,,inactive
Usp39 (Ubiquitin specific protease 39),1,6,,inactive
Usp39 (Ubiquitin specific protease 39),2,2,,inactive
CG4830,1,7,,inactive
CG31386 (retired record),1,12,,inactive
CG31386 (retired record),2,3,,inactive
CG31462 (retired record),1,1,,inactive
CG15861,1,5,,inactive
CG15861,2,6,,inactive

Targets listed so far whose target name begins with H or h (2):
Target gene,dsRNA no.,"mitotic cells, replicate 1","mitotic cells, replicate 2",Call
Hex-C (Hexokinase C),1,4,,inactive
Hex-C (Hexokinase C),2,6,,inactive
